These are yes or no findings as the source states them, for the method shown. Binding seen in cells or lysates may run through a third protein. Binding calls can cover weak binding; strength is not graded here.
Molecular target: T1, endogenous SHARPIN (human (endogenous in HEK 293ET)) (UniProt Q9H0F6)
T1 sequence: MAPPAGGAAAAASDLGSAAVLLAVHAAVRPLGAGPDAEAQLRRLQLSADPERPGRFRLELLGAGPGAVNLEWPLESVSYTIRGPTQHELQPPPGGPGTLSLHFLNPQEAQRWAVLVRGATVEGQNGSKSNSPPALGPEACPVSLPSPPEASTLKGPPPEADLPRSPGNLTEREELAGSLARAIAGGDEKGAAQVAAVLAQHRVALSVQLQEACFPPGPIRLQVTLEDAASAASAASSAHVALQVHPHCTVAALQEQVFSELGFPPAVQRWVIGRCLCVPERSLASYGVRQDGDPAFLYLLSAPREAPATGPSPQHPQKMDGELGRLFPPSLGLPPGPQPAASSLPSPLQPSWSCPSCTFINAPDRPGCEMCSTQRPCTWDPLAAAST
Test: co-IP; IP of endogenous SHARPIN, unstimulated and after TNFα (100 ng/ml); western blot

binding: binds
Substance: endogenous TNFR1 (receptor)

— paper PMC3690481
